Results taken from publication PMC9508819, “Rbp95 binds to 25S rRNA helix H95 and cooperates with the Npa1 complex during early pre-60S particle maturation”.
These are yes or no findings as the source states them, for the method shown. In cells and extracts the contact can be indirect. Some entries that bind do so weakly or less than the wild type.

How the values were obtained:
[1] = target: T1, Noc2-TAP (S. cerevisiae) (UniProt P39744); test: co-IP; Noc2-TAP purification from wild-type control and GAL1-RPL3, GAL1-NPA1 and GAL1-SSF1 Δssf2 strains grown in galactose (YPG) or shifted to glucose (YPD) for about 18 h; western blotting (Supplementary Figure S8)
T1 sequence: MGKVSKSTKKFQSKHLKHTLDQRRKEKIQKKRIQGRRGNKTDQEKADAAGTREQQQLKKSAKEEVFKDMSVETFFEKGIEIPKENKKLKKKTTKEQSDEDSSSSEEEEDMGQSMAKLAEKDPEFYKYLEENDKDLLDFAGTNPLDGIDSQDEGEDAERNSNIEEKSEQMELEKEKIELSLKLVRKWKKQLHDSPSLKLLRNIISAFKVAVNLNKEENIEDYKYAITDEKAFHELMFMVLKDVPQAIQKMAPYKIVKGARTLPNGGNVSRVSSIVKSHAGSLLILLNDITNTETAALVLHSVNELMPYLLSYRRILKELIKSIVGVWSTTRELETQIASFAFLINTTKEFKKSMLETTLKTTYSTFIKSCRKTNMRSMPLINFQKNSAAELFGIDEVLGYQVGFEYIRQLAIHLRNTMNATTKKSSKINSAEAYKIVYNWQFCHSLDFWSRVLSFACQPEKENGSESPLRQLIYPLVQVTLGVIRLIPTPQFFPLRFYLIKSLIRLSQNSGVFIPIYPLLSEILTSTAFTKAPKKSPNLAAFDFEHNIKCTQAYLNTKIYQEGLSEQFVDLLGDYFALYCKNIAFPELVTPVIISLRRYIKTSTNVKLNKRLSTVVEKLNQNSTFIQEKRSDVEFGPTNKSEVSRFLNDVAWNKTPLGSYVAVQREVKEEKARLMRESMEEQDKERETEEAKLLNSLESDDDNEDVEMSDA

[2] = target: T2, Lsg1-TAP (S. cerevisiae) (UniProt P53145); test: co-IP; tandem-affinity purification from yeast lysate (IgG Sepharose, TEV elution, Calmodulin Sepharose, EGTA elution); 50 mM Tris-HCl pH 7.5, 100 mM NaCl, 1.5 mM MgCl2, 0.1% NP-40, 1 mM DTT; eluates analysed by western blotting; for Figure 8C from wild-type and Δrbp95 strains
T2 sequence: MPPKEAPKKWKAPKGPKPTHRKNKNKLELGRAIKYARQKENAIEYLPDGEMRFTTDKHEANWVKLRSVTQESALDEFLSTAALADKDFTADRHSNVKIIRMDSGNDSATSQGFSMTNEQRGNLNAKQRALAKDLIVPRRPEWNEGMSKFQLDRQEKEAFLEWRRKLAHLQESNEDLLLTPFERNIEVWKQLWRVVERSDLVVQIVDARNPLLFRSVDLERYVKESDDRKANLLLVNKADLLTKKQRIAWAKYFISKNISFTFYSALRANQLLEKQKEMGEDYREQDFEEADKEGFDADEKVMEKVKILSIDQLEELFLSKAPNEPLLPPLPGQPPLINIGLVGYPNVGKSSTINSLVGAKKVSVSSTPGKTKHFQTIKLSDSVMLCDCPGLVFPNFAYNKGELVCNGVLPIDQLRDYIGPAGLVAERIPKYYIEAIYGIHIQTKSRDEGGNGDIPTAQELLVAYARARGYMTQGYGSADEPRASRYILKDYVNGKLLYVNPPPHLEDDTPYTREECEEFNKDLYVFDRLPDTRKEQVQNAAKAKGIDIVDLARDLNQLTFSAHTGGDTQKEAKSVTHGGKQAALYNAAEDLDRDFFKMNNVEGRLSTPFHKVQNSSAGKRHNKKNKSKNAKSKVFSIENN

[3] = target: T3, Nsa1-TAP (S. cerevisiae) (UniProt P53136); test: as above
T3 sequence: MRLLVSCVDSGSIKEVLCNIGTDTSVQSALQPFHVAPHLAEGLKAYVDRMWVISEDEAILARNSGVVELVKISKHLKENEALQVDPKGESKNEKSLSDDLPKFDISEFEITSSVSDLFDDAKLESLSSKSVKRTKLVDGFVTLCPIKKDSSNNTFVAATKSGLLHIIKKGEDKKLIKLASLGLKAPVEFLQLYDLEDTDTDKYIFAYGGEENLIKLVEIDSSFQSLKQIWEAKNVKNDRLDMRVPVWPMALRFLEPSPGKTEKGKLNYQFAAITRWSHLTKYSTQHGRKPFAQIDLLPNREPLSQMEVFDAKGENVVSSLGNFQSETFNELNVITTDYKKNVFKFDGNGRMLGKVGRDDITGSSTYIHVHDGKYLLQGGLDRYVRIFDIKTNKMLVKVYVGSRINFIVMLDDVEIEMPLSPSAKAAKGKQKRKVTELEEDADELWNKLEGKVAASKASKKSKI

[4] = target: T4, Rix1-TAP (S. cerevisiae) (UniProt P38883); test: as above
T4 sequence: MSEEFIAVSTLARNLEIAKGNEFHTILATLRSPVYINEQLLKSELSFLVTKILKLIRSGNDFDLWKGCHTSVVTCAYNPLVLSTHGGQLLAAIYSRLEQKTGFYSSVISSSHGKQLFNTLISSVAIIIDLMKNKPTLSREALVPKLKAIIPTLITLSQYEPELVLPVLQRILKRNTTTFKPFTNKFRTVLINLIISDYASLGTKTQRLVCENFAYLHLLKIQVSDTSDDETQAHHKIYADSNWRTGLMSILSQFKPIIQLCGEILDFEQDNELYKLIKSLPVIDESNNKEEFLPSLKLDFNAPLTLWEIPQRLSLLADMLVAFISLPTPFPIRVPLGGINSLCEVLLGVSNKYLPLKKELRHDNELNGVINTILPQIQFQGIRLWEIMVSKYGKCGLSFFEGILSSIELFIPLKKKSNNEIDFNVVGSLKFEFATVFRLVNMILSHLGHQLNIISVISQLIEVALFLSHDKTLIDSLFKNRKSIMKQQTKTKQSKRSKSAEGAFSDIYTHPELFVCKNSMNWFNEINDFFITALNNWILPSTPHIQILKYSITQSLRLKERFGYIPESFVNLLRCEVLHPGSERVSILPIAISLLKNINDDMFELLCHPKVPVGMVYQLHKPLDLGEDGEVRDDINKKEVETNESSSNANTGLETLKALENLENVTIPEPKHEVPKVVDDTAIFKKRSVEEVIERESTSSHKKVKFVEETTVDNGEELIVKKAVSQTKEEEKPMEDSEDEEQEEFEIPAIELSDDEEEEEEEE

B1: Rbp95 (Ycr016w) (protein, UniProt P25617 1-290)
chain: MSENHVPAWKRIALKRQTISSGDESKEKGQSNLIDDDPLNITTHLSTGNLTKKEKKRIINGESKSSTKKGKRVSKPGTKKKEKLSKDEKNSKKNKILKDQLRYLIEFFRTKSESKFPTGILELESVKENYGDSLIKDEPSESGVVEVWKFSKQKQNWLIKHFFNLDEIPSVYNDLLLLYFRDLQGKSKEELISKCKGKLKQWNDYVEDQETKIKALIAEDKASEPINGEEKEEGEKDGNAEQGKQKEVQDEQEEVQMPNKELVQRSLKLLEIWKNDDSEQIELKNFFVDV
In the case of B1, the binding [1] is reported as “binds”, the binding [2] is reported as “binds weakly” and the binding [3] is reported as “binds weakly”. The binding [4] was “binds weakly”.
